One molecule from doi:10.1101/2025.02.01.636027 can be followed below.

This assay concerns the target T1, TNI-cEYFP (Arabidopsis thaliana) (UniProt Q8L6Y1).
T1 sequence: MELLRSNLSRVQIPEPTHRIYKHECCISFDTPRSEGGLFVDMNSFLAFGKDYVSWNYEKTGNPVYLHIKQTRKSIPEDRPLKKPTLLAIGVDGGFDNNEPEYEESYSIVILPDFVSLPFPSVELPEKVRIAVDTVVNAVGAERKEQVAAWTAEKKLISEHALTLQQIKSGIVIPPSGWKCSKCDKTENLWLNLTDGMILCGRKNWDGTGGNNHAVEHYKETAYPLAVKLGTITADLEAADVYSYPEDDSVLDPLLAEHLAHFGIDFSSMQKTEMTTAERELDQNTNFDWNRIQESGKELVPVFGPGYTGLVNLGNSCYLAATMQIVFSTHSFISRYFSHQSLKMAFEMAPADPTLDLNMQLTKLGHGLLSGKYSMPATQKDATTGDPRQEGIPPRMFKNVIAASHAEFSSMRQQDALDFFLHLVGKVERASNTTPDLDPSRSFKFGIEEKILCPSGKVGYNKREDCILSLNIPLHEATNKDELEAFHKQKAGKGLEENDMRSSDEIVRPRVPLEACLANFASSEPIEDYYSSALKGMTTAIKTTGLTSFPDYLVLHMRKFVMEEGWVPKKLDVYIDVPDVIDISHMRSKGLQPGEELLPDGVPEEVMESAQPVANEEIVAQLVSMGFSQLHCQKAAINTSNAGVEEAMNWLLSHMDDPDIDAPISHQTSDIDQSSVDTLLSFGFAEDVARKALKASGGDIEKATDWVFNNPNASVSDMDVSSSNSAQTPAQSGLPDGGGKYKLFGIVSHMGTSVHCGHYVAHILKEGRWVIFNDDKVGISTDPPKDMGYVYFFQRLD
In words: split reporter.

These are yes or no findings as the source states them, for the method shown. In cells and extracts the contact can be indirect. Some results given as binding are weak or reduced against the parent protein; the word gives no strength.

B1: ULT2-nEYFP (protein, UniProt Q8S8I2 1-228)
chain: MERECGSKELFSKEELQEISGVHVGDDYVEVMCGCTSHRYGDAVARLKIFSDGELQITCQCTPACLEDKLTPAAFEKHSERETSRNWRNNVWVFIEGDKVPLSKTVLLRYYNKALKNSNVSKVIHRDEFVGCSTCGKERRFRLRSRGECRMHHDAIAEPNWKCCDYPYDKITCEEEEERGSRKVFRGCTRSPSCKGCTSCVCFGCKLCRFSDCNCQTCLDFTTNAKPI
B1: the binding entry is reported as “binds”.
